Measured data: PubChem BioAssay AID1259263 (Sanger Institute, 2017)
The deposit covers 160 reagents; below is a random part of them. 101 of all reagents (63%) count as active. 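Drug doses chosen to kill few cells alone; each row is one siRNA, and a gene counts as confirmed only if two or more siRNAs show synergy.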 The numbers tell different reagents against one gene apart. Not all columns of the deposit are shown. The record does not give: the amount of reagent, the time to read-out.

- Screen: 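Recheck kinase screen hits for synergy with three targeted cancer drugs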 (follow-up of hits)
- Cells: SW1463 human colorectal cancer cell line
- Reagent: single siRNA against human genes
- Treatment: anchor drugs BYL719 at 1 µM, cetuximab at 5 µg/ml or trametinib at 10 nM, or DMSO vehicle, added one day after siRNA transfection
- Measured: 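Viability relative to a non-targeting siRNA control, averaged over replicates, plus a synergy score contrasting measured with expected viability loss for knock-down and drug combined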
- Direction: synergy score with trametinib and synergy score with BYL719 and synergy score with cetuximab: higher = stronger synthetic lethal effect with the drug; viability with trametinib: higher = more cells survive knock-down plus drug
- Call rule: 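a synergy score over 0.10 with any anchor drug (BYL719, cetuximab or trametinib) marks the siRNA active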
- Meaning of the calls: active = synergy with at least one drug; inactive = no synergy with any drug

no.	target gene	siRNA no.	synergy score with trametinib	synergy score with BYL719	synergy score with cetuximab	viability with trametinib (fraction of control)	call
1	EPHA6 (GeneID 285220)	1	0.137	0.0876	0.0246	0.467	active
2	EPHA6 (GeneID 285220)	2	0.127	-0.0898	0.181	0.429	active
3	EPHA6 (GeneID 285220)	3	0.018	0.032	-0.0327	0.467	inactive
4	EPHA6 (GeneID 285220)	4	0.0189	-0.00195	0.0645	0.667	inactive
5	NR2F2 (GeneID 7026)	1	0.228	-0.294	-0.0219	0.337	active
6	NR2F2 (GeneID 7026)	2	0.156	-0.235	-0.0701	0.455	active
7	NR2F2 (GeneID 7026)	3	0.344	-0.0249	0.139	0.389	active
8	NR2F2 (GeneID 7026)	4	0.0782	0.0693	-0.0563	0.522	inactive
9	MAPKAPK2 (GeneID 9261)	1	0.0835	0.162	0.0426	0.66	
10	MAPKAPK2 (GeneID 9261)	2	0.252	0.0358	0.109	0.467	active
11	MAPKAPK2 (GeneID 9261)	3	0.0195	0.154	0.0808	0.708	
12	MAPKAPK2 (GeneID 9261)	4	-0.12	0.169	-0.00694	0.812	
13	CAMK2N1 (GeneID 55450)	1	0.0169	-0.022	-0.0953	0.686	inactive
14	CAMK2N1 (GeneID 55450)	2	0.0445	0.372	0.0578	0.686	
15	CAMK2N1 (GeneID 55450)	3	0.314	0.202	0.0521	0.377	active
16	CAMK2N1 (GeneID 55450)	4	-0.119	0.029	-0.0257	0.322	inactive
17	STK36 (GeneID 27148)	1	-0.0702	-0.312	-0.0542	0.467	inactive
18	STK36 (GeneID 27148)	2	0.00188	-0.0704	-0.00565	0.741	inactive
19	STK36 (GeneID 27148)	3	-0.0211	-0.00469	-0.0409	0.619	inactive
20	STK36 (GeneID 27148)	4	0.184	-0.0704	0.154	0.559	active
